# Source: PubChem BioAssay AID588674 (Broad Institute, 2011)
# The campaign covered roughly 360,000 compounds. About 1,800 (0.5%) were called active. The inconclusive results got no clear call from the source; some entries with a clear call stand among them for comparison.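 Rule for the calls: active = mean inhibition of at least 75% with every replicate also reaching 75%; inconclusive = mean inhibition at least 75% but some replicate below; inactive = mean inhibition below 75%.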
# Assay: reduction of Shn3 3'UTR firefly luciferase signal, primary screen, Schnurri-3 inhibitor project, cell-based, Clone20 osteoblasts, set 2 (AID 588674);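 note: 0% = median of neutral control wells and 100% = pilot-screen positive control compound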
# Conditions: Clone20 osteoblast Shn3 3'UTR firefly luciferase, 24 h; at 12.5 µM; stronger effect = higher value
row,SMILES,inhibition
1,COc1ccc(NC(=O)C2(C)CCN2C2Cc3ccccc3C2)cc1OC (stereo unspecified),inactive: 0.713%
2,CC(=O)N1c2ccc(S(=O)(=O)N3CCC(C(=O)Nc4cccc(Cl)c4)CC3)cc2CC1C (stereo unspecified),active: 89.1%
3,CN1/C(=C\C=N\O)C(C)(C)c2ccccc21,inactive: -4.48%
4,Cn1c2c(c(=O)n(C)c1=O)C(C(F)(F)F)(C(F)(F)F)N=C(c1ccc(Cl)cc1)N2,active: 80.8%
5,C=CCC[C@H](Cc1ccc(F)cc1)C(=O)OC[C@@H](Cc1c[nH]c2ccccc12)NC(=O)[C@H](CC=C)CC(=O)N(CCO)Cc1ccccc1,inconclusive: 85.3%
6,COc1ccccc1-c1cc(C(F)(F)F)nc(S(=O)(=O)CCCC(=O)Nc2cc(C)on2)n1,active: 96.7%
7,COCCNC(=O)c1c(N)n(-c2ccccc2)c2nc3ccccc3nc12,inactive: 27%
8,C=CCn1c(COc2ccccc2)nnc1SC(C)C(=O)N/N=C/c1cc(Cl)ccc1O (stereo unspecified),inconclusive: 86.2%
9,Cc1cc2c(cc(C(=O)OC(C(=O)NC3CCCCC3)C(C)C)n2C)o1 (stereo unspecified),inconclusive: 87%
10,COc1ccc(/C=C/CN2CCCC(C(=O)c3ccc(OC)c(F)c3)C2)cc1 (stereo unspecified),inactive: 6.62%
11,CC1(C)CC(N2CCCCC2)=CC(=[N+]2CCCCC2)C1,inconclusive: 85.3%
12,COc1ccc2nc(Nc3nc(CSc4ccc(C)cc4)cc(=O)[nH]3)nc(C)c2c1,inconclusive: 81%
13,NC(Cc1ccccc1)c1csc(NC(=O)Nc2ccccc2Oc2ccccc2)n1 (stereo unspecified),inconclusive: 87.1%
14,COc1ccc(-n2c(C)cc(/C=C3\SC(=S)NC3=O)c2C)cc1,inactive: -61.2%
15,Cc1cccc(-c2nc(CNC(=O)c3ccco3)cs2)c1,inactive: -4.69%
16,CCOc1cc(Br)cc(/C=N/NC(=O)c2cccnc2)c1O,active: 92.1%
17,CC(=O)OCCCNc1cc(Sc2ccc(Cl)cc2)c2nonc2c1[N+](=O)[O-],inconclusive: 89.2%
18,COc1ccc(-c2nc(NC(=O)c3ccc(OCC(=O)N4CCOCC4)c(OC)c3)sc2C)cc1,inactive: 19.1%
19,CCCCC(=O)NC(c1ccc(OC)c(OC)c1)c1ccc2cccnc2c1O (stereo unspecified),active: 87.9%

row,SMILES,inhibition
1,Cc1ccn2c(Nc3ccccc3C)c(-c3ccccn3)nc2c1,inconclusive: 85.3%
2,N#Cc1ccc(-c2nc3ccc(Cl)cn3c2Cc2ccccc2C(F)(F)F)cc1,inactive: 0.957%
3,O=C(CSc1nc(C(F)(F)F)cc(=O)[nH]1)N1CCCC1,inconclusive: 86.1%
4,Cc1cccc(CS(=O)(=O)c2ncc(Cl)c(C(=O)NCc3ccccc3)n2)c1,active: 95.3%
5,O=C(/C=C/c1ccc(OCc2ccccc2)c(OCc2ccccc2)c1)c1cccnc1,active: 88.8%
6,Oc1ccc(/C=N/Nc2nccnc2Cl)c(O)c1,inconclusive: 87.3%
7,COc1cccc(/C=N/NC(=O)CSCC(=O)Nc2ccccc2)c1O,inconclusive: 81.9%
8,COc1ccc(-n2nc3c(N4CCC(C(=O)NCC(C)c5ccccc5)CC4)nnc(C)c3c2C)cc1 (stereo unspecified),inconclusive: 85.1%
9,CCC(=O)NC(c1ccc(Cl)cc1Cl)c1ccc2cccnc2c1O (stereo unspecified),inconclusive: 86.5%
10,CC(OC(=O)c1ccc(S(C)(=O)=O)c([N+](=O)[O-])c1)C(=O)NC1C2CC3CC(C2)CC1C3 (stereo unspecified),active: 98.1%
11,Nc1ccc(N(c2ccccc2)c2ccc(N)cc2)cc1,inactive: 17%
12,CCC1c2ccccc2C(=O)C1C(N)=O (stereo unspecified),inconclusive: 83.9%
13,CC(=O)N(CCc1ccccc1)c1ccc2c(c1)C1CC2CCN1C(=O)OCc1ccccc1 (stereo unspecified),inconclusive: 86.2%
14,CNC(=S)N/N=C1\C(=O)c2cccc3cccc1c23,inactive: -58.4%
15,O=C(COC(=O)c1ccc(Br)o1)Nc1ncc([N+](=O)[O-])s1,inactive: -33.1%
16,N#Cc1cc(-c2ccccc2)[nH]c1-c1nccc2ccccc12,inconclusive: 85.2%
17,O=C(O)c1cccc(NS(=O)(=O)c2cccc3nsnc23)c1,inactive: -4.24%
18,Cc1ccc(Cn2ccc(NC(=O)c3nn(C)cc3[N+](=O)[O-])n2)cc1,inconclusive: 85.6%
19,COc1ccc(N=Nc2ccc(O)c3ncccc23)cc1,active: 91%

row,SMILES,inhibition
1,O=C(NC1=C(Nc2ccc(F)cc2)C(=O)c2ccccc2C1=O)c1ccc(Cl)cc1,inactive: 1.29%
2,COc1ccccc1NC(=O)Cc1nn(C)c(=O)c2ccccc12,inconclusive: 86.1%
3,Cc1ccc2c(c1)sc(=NC(=O)c1cccs1)n2C,inactive: 3.93%
4,CC(C)CCNC(=O)c1cc2c(=O)[nH]c3ccccc3c2s1,inconclusive: 85.5%
5,O=C1C=CC2C3C(=O)N(c4ccccc4)C(=O)C3C1N2Cc1ccccc1 (stereo unspecified),inconclusive: 85.7%
6,COc1ccc(CCCC(=O)N/N=C/c2cccc(OC)c2O)cc1C,inconclusive: 87%
7,CC(C)c1c(O)c2c(n(-c3ccccc3)c1=O)CCCC2,inconclusive: 87%
8,CCOc1cc(N2CCOCC2)c(OCC)cc1NC(=O)COc1cccc2cccnc12,inconclusive: 85.6%
9,CCC(=O)OCCNc1cc(Sc2nccn2C)c2nonc2c1[N+](=O)[O-],active: 89.2%
10,O=C(Cc1ccc(Cl)cc1)NCCS(=O)c1ccc(Cl)cc1 (stereo unspecified),inactive: -22.4%
11,O=C(c1cc(C2CC2)nn1-c1ccccc1)N1CCN(Cc2ccccc2)CC1,inactive: -11.2%
12,Cc1ccc(S(=O)(=O)N2CC=C(N)N2)cc1,inconclusive: 80.7%
13,CCCCn1c(CN2CCN(c3ccccc3)CC2)nc2c1c(=O)n(C)c(=O)n2C,inconclusive: 85.2%
14,COc1cc(NC(=O)c2cccc3c(-c4cccnc4)coc23)cc(OC)c1OC,inconclusive: 85.5%
15,CN(C)CCNC(=O)c1cccc(-c2cccc3nncn23)c1,inactive: -10.8%
16,Cc1cc(C)nc(SCC(=O)Nc2ccc(N3CCOCC3)c(Cl)c2)n1,inconclusive: 85.1%
17,CCCCCCN1C[C@@H](n2cc(-c3ccc(F)cc3)nn2)[C@H](O)C[C@@H]1c1ccc(Cl)cc1,inconclusive: 85.7%
18,CCC(=O)NC(C)c1cc(Cl)c2cccnc2c1O (stereo unspecified),active: 91.1%

# A different layout for some results above:
row | SMILES | inhibition
7 | CC(C)c1c(O)c2c(n(-c3ccccc3)c1=O)CCCC2 | inconclusive: 87%
8 | CCOc1cc(N2CCOCC2)c(OCC)cc1NC(=O)COc1cccc2cccnc12 | inconclusive: 85.6%
9 | CCC(=O)OCCNc1cc(Sc2nccn2C)c2nonc2c1[N+](=O)[O-] | active: 89.2%
